{
  "sequences": {"note": "By UniProt entry, the sequences of proteins in these tests, tags left out. Where a name states a change or a piece, a line headed by the entry shows the natural chain unless it says otherwise.", "UniProt P51687": "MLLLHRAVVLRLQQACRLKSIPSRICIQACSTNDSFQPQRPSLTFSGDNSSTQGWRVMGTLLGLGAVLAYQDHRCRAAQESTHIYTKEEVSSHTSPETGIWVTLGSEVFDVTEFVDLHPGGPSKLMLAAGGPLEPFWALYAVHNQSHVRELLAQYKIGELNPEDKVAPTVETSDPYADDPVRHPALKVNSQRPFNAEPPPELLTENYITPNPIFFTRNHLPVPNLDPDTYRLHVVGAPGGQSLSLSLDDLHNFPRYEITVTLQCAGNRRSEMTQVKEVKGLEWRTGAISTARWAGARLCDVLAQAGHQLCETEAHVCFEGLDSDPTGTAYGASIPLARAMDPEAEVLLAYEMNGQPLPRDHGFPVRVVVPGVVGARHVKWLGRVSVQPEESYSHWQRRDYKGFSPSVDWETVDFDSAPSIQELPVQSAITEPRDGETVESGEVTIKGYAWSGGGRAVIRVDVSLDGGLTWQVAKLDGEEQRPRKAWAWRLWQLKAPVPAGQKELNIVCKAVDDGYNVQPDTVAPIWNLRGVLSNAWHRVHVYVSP", "UniProt P51452": "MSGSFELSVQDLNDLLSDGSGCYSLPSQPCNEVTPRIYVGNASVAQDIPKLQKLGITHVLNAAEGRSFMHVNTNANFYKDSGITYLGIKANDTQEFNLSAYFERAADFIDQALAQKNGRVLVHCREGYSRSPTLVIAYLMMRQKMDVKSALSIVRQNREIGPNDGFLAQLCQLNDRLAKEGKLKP", "UniProt P54136": "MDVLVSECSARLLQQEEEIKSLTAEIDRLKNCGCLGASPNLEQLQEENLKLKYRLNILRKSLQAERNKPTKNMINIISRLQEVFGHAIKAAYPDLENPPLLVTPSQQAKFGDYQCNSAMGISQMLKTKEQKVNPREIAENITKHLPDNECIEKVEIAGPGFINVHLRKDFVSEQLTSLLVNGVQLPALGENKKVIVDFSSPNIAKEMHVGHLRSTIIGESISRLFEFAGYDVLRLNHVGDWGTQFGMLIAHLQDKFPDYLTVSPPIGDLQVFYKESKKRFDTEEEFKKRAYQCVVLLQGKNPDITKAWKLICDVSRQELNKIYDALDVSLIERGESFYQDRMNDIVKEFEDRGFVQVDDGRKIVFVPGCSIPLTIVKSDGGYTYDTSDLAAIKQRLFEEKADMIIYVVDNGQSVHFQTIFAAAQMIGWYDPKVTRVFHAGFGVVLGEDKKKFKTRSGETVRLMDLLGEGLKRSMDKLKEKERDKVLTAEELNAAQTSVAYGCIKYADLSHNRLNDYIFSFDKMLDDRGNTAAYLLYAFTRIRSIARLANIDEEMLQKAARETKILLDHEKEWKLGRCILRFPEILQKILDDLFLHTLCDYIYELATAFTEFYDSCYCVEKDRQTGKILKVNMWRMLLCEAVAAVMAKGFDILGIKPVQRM", "UniProt P54578": "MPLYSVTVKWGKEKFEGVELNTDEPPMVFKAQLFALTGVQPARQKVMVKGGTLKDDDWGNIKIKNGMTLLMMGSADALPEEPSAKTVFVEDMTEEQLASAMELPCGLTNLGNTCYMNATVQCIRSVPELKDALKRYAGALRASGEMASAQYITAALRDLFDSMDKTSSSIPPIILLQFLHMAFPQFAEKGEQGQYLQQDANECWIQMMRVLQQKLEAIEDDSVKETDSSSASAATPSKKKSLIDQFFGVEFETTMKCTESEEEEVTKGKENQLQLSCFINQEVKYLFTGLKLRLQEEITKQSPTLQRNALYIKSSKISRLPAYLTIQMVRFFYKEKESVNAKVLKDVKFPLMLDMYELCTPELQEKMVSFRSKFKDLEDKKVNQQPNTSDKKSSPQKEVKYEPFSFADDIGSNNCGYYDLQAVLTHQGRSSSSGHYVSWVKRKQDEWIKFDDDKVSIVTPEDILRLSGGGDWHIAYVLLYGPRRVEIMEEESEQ", "UniProt P52566": "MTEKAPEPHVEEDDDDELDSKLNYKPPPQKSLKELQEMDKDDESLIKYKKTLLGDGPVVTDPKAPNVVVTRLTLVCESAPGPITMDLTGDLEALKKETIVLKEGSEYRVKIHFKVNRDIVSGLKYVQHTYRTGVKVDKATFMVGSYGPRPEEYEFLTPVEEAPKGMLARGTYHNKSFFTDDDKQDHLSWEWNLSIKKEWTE", "UniProt P50336": "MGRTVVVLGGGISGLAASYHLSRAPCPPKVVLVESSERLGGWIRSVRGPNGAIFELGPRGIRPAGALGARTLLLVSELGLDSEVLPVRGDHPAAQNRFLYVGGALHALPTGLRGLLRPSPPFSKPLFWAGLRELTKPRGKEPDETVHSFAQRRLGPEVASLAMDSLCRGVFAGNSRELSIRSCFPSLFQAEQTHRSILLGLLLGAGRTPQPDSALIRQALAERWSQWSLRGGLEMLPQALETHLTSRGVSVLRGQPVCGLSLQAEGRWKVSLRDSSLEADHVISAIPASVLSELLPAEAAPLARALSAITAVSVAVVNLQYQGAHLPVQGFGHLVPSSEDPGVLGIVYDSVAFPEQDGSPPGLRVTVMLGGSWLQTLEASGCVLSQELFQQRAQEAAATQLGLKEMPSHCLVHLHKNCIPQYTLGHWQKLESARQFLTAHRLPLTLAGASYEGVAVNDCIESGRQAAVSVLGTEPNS", "UniProt P49257": "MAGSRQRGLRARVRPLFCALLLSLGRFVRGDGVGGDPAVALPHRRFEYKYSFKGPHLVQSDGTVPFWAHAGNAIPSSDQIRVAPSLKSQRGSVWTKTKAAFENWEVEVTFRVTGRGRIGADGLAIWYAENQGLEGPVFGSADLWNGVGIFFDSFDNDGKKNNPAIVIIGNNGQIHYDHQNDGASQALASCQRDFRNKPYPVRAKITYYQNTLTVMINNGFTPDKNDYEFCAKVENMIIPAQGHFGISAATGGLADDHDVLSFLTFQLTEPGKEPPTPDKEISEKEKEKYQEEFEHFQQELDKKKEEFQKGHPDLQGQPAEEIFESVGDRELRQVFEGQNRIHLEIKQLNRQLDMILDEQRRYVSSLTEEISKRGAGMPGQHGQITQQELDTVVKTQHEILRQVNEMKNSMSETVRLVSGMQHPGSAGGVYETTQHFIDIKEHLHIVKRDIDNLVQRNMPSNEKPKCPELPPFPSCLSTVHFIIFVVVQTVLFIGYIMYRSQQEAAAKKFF", "UniProt P49720": "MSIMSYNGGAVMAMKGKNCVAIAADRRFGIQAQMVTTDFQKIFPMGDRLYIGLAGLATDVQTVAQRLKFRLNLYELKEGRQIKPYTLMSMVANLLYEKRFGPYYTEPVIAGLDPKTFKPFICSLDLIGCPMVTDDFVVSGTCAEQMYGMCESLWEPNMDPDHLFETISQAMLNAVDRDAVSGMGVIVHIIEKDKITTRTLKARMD", "UniProt P49842": "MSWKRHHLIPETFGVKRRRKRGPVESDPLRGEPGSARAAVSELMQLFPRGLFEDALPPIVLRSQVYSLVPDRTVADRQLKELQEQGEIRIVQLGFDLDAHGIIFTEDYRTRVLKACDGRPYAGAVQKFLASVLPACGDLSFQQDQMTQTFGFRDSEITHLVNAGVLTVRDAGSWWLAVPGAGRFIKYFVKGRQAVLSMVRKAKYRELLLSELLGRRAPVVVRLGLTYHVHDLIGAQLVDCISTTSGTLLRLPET", "UniProt P46108": "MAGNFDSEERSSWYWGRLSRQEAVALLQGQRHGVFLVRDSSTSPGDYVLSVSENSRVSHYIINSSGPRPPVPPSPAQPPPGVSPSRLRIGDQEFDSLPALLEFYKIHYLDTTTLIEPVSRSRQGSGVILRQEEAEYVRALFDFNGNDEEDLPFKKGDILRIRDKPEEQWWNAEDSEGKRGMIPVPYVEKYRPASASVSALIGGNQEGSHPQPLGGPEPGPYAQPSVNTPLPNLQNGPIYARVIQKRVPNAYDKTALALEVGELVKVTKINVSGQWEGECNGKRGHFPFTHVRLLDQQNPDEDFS", "UniProt P50226": "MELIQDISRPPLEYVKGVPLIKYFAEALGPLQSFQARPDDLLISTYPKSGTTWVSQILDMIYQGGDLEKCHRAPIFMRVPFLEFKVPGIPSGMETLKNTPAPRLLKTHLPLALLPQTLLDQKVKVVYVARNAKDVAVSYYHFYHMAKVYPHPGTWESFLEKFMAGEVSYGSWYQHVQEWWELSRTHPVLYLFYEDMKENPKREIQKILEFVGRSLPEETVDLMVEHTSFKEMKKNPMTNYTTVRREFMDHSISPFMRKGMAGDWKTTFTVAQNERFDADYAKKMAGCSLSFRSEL", "UniProt P54277": "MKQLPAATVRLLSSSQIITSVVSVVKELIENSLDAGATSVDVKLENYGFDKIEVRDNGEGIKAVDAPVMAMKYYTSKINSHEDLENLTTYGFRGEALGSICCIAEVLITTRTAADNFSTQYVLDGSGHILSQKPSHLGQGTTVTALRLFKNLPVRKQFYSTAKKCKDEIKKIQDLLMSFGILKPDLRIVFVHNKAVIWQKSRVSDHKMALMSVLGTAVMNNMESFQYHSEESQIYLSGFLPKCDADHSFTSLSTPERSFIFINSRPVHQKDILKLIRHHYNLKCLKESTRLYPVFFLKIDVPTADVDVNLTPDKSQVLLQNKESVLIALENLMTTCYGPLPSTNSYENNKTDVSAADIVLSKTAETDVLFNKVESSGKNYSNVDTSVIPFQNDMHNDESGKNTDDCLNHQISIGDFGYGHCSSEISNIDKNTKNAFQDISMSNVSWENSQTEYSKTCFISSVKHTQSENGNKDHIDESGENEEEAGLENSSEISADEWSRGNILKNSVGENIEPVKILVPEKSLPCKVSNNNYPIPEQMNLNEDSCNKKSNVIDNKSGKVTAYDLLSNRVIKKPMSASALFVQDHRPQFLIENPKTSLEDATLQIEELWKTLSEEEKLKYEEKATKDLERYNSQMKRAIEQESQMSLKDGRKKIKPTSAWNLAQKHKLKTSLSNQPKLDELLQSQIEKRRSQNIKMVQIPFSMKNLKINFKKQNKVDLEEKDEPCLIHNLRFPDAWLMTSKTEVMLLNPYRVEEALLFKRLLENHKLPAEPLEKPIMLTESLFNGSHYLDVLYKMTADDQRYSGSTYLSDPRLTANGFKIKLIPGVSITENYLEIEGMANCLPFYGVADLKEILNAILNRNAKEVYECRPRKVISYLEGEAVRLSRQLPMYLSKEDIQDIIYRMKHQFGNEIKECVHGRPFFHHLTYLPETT", "UniProt P54105": "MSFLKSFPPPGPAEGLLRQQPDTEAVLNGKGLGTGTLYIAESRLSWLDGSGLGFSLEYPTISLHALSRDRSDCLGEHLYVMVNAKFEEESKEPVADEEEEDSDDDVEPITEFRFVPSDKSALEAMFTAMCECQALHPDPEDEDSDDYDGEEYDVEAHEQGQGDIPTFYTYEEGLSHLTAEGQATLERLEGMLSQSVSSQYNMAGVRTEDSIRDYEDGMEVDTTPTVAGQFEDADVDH", "UniProt P52565": "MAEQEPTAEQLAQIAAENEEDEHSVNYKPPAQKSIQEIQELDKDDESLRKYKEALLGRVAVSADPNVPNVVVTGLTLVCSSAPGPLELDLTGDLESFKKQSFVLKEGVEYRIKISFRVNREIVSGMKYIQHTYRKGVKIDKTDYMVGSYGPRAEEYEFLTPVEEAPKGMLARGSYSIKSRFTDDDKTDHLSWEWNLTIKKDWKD", "UniProt P51784": "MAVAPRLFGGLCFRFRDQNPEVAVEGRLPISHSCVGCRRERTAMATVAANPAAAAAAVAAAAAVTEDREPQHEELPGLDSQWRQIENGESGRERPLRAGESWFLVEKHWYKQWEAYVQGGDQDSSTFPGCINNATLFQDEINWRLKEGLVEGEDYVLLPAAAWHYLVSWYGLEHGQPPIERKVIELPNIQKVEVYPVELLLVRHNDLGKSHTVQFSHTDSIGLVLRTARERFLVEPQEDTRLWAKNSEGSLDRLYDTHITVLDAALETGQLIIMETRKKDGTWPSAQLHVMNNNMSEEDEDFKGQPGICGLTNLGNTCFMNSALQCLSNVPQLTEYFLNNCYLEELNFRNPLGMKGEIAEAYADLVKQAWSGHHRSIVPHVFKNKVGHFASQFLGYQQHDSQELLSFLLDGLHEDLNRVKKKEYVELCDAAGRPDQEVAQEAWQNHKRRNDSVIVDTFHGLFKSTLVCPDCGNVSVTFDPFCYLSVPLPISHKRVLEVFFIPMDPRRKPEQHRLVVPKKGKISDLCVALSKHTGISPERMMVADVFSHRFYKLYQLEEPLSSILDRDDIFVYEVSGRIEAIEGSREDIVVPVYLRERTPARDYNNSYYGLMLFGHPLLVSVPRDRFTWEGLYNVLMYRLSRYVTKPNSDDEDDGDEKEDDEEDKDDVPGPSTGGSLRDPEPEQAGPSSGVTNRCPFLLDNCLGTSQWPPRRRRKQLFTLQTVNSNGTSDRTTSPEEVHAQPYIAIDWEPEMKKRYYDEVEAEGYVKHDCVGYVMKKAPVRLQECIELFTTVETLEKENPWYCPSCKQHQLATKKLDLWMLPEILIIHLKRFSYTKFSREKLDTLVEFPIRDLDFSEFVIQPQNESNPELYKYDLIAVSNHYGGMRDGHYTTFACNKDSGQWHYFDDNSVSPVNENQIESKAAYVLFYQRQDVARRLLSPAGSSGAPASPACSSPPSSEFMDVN"},
  "source": "the supplement of paper PMC12819154",
  "about": "“High-throughput peptide-centric local stability assay extends protein–ligand identification to membrane proteins, tissues and bacteria” (Nature Structural & Molecular Biology, 2025)",
  "note": "This is one part of the list. Most entries show no effect beyond the scatter of the controls.",
  "data": [
    {"compound": "Cc1nc(Nc2ncc(C(=O)Nc3c(C)cccc3Cl)s2)cc(N2CCN(CCO)CC2)n1 [dasatinib]", "experiment": "log2 fold change of tryptic peptide abundance, ligand vs vehicle (limited proteolysis) (log2 ratio); higher = more trypsin-susceptible (destabilized)", "conditions": "ligand concentration: 5 uM; sample: K562 cleared lysate", "values": [
      {"target": "PPM1F (peptide sequence: LMEPHRPERQDEK, peptide start residue: 288) (UniProt P49593)", "log2 fold change": -0.115},
      {"target": "CLTCL1 (peptide sequence: VVGAMQLYSVDR, peptide start residue: 177) (UniProt P53675)", "log2 fold change": -0.481},
      {"target": "MAPK12 (peptide sequence: GSDHLDQLK, peptide start residue: 228) (UniProt P53778)", "log2 fold change": -0.145},
      {"target": "TTC3 (peptide sequence: TANKDPIK, peptide start residue: 357) (UniProt P53804)", "log2 fold change": -0.427},
      {"target": "SUOX (peptide sequence: GVLSNAWHR, peptide start residue: 530) (UniProt P51687)", "log2 fold change": 0.33},
      {"target": "UniProt P49450 (peptide sequence: IRGLEEGLG, peptide start residue: 132)", "log2 fold change": 0.158},
      {"target": "HDGF (peptide sequence: KSCVEEPEPEPEAAEGDGDKK, peptide start residue: 106) (UniProt P51858)", "log2 fold change": 0.0799},
      {"target": "STAT5B (peptide sequence: ATQLLEGLVQELQKK, peptide start residue: 57) (UniProt P51692)", "log2 fold change": -0.336},
      {"target": "FNTB (peptide sequence: FNHLVPR, peptide start residue: 64) (UniProt P49356)", "log2 fold change": 0.141},
      {"target": "DUSP3 (peptide sequence: AADFIDQALAQK, peptide start residue: 105) (UniProt P51452)", "log2 fold change": -0.103},
      {"target": "HCFC1 (peptide sequence: SLHSATTIGNK, peptide start residue: 256) (UniProt P51610)", "log2 fold change": -0.418},
      {"target": "ATXN3 (peptide sequence: MESIFHEK, peptide start residue: 1) (UniProt P54252)", "log2 fold change": -0.0908},
      {"target": "RARS (peptide sequence: YADLSHNRLNDYIFSFDK, peptide start residue: 505) (UniProt P54136)", "log2 fold change": 0.343},
      {"target": "SERPINB8 (peptide sequence: KYTRGMLFK, peptide start residue: 178) (UniProt P50452)", "log2 fold change": 0.0544},
      {"target": "USP14 (peptide sequence: FDDDKVSIVTPEDILR, peptide start residue: 450) (UniProt P54578)", "log2 fold change": -0.156},
      {"target": "ARHGDIB (peptide sequence: TLLGDGPVVTDPK, peptide start residue: 51) (UniProt P52566)", "log2 fold change": 0.139},
      {"target": "ALDH5A1 (peptide sequence: AFAEAMKK, peptide start residue: 359) (UniProt P51649)", "log2 fold change": 0.415},
      {"target": "UniProt P49591 (peptide sequence: IEQFVYSSPHDNK, peptide start residue: 324)", "log2 fold change": 0.137},
      {"target": "PPOX (peptide sequence: APCPPKVVLVESSER, peptide start residue: 24) (UniProt P50336)", "log2 fold change": -0.424},
      {"target": "LMAN1 (peptide sequence: DIDNLVQR, peptide start residue: 449) (UniProt P49257)", "log2 fold change": -0.211},
      {"target": "UniProt P52758 (peptide sequence: AAYQVAALPK, peptide start residue: 108)", "log2 fold change": -0.291},
      {"target": "UniProt P49720 (peptide sequence: LNLYELK, peptide start residue: 71)", "log2 fold change": -0.0289},
      {"target": "TRAPPC10 (peptide sequence: CVVLSDPLKDSSR, peptide start residue: 162) (UniProt P48553)", "log2 fold change": 0.198},
      {"target": "STK19 (peptide sequence: DSEITHLVNAGVLTVR, peptide start residue: 268) (UniProt P49842)", "log2 fold change": 0.304},
      {"target": "NCBP2 (peptide sequence: SGGQVRDEYRQDYDAGR, peptide start residue: 130) (UniProt P52298)", "log2 fold change": -0.338},
      {"target": "UniProt P50613 (peptide sequence: DLKPNNLLLDENGVLK, peptide start residue: 137)", "log2 fold change": 0.301},
      {"target": "SMARCA2 (peptide sequence: GQPLPETLQLAVQGKR, peptide start residue: 195) (UniProt P51531)", "log2 fold change": -0.284},
      {"target": "CRK (peptide sequence: GMIPVPYVEK, peptide start residue: 180) (UniProt P46108)", "log2 fold change": 0.236},
      {"target": "RABGGTB (peptide sequence: HADYIASYGSK, peptide start residue: 23) (UniProt P53611)", "log2 fold change": 0.423},
      {"target": "UniProt P50226 (peptide sequence: VPGIPSGMETLK, peptide start residue: 86)", "log2 fold change": -0.185},
      {"target": "PMS1 (peptide sequence: LDELLQSQIEKR, peptide start residue: 678) (UniProt P54277)", "log2 fold change": -0.201},
      {"target": "CLNS1A (peptide sequence: GLGTGTLYIAESR, peptide start residue: 31) (UniProt P54105)", "log2 fold change": 0.0377},
      {"target": "UniProt P51812 (peptide sequence: GAMAATYSALNR, peptide start residue: 701)", "log2 fold change": 0.0853},
      {"target": "NEK4 (peptide sequence: VAEEAEEIHFK, peptide start residue: 752) (UniProt P51957)", "log2 fold change": -0.601},
      {"target": "ARHGDIA (peptide sequence: YIQHTYR, peptide start residue: 128) (UniProt P52565)", "log2 fold change": -0.298},
      {"target": "UniProt P51784 (peptide sequence: DGHYTTFACNK, peptide start residue: 886)", "log2 fold change": 0.121},
      {"target": "BCAT1 (peptide sequence: CILDLAHQWGEFK, peptide start residue: 293) (UniProt P54687)", "log2 fold change": -0.155}
    ]}
  ]
}
